Values from PubChem BioAssay AID504784 (Drosophila RNAi Screening Center, 2011)

Aim: 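Fly genes whose silencing alters how much lipid cells keep in droplets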 (primary screen)
Cell system: Drosophila Kc167 embryonic cells
Reagents: long dsRNA against Drosophila genes, about 250 ng dsRNA per well
Duration: 4 days
Challenge: cells fed 400 µM oleic acid bound to BSA
Measurement: 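Cells imaged and segmented; ratio of lipid droplet area to nuclear area, log-transformed, then normalised as a B-score over the screen; higher means more stored lipid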
Scale: droplet/nuclear area B-score: higher = more stored lipid (overstorage)
The deposit covers about 17,000 reagents; this is an unselected part of those that have a named target and a result. 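Each column is one replicate's B-score; the combined score over replicates was not deposited, so single values may mislead.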 Names joined by + are all predicted targets of the reagent. Not all columns of the deposit are shown. Reagent sequences are not shown.

| Gene | DRSC id | droplet/nuclear area B-score, replicate 1 | droplet/nuclear area B-score, replicate 2 |
| --- | --- | --- | --- |
| CG9747 | DRSC16554 | -1.85 | -0.344 |
| CG14778 | DRSC17953 | -0.988 | -0.322 |
| CNBP | DRSC04116 | -0.798 | -2.14 |
| CNBP | DRSC04419 | -1.52 | -0.251 |
| CNBP | DRSC21317 | 1.13 | -0.912 |
| Syt4 | DRSC12606 | -0.0706 | 0.802 |
| intr | DRSC14528 | -1.61 | – |
| twit | DRSC03210 | 0.628 | 0.627 |
| AMPKalpha | DRSC18714 | 0.48 | – |
| Ugt35C1 | DRSC16080 | -0.787 | -0.855 |
| lig | DRSC07246 | -1.28 | -0.338 |
| lig | DRSC07247 | -0.593 | 2.61 |
| Npc2e | DRSC15522 | -0.0131 | 0.0477 |
| Npc2e | DRSC22338 | 2.4 | -0.859 |
| CG42304 + Snup | DRSC08276 | 2.53 | 1.61 |
| CG42304 + Snup | DRSC08277 | 0.519 | 1.61 |
| CG42304 + Snup | DRSC22781 | -0.129 | -3.19 |
| Acp65Aa | DRSC09663 | -0.113 | -0.08 |
| Rrp5 | DRSC15862 | 0.0537 | -0.0479 |
| CG16972 | DRSC02550 | -0.574 | -1.09 |
| CG33017 | DRSC06573 | 0.364 | 0.799 |
| CG33017 | DRSC06574 | 0.954 | 2.26 |
| CG15705 | DRSC06576 | 1.23 | – |
| CG15753 (retired record) | DRSC19718 | 0.00192 | 0.233 |
| CG15753 (retired record) | DRSC22985 | 2.58 | 1.23 |
| CG15317 | DRSC18005 | 0.301 | 0.532 |
| CG32187 | DRSC10521 | -0.648 | -0.604 |
| Pbgs | DRSC09718 | 0.924 | 2.06 |
| MED23 + CG3700 | DRSC04406 | -0.929 | -1.1 |
| MED23 + CG3700 | DRSC04407 | 1.74 | -0.27 |
| Hus1-like | DRSC12353 | -0.0423 | 1.7 |
| Spn31A | DRSC02780 | 0.68 | -0.136 |
| CG3611 | DRSC04395 | -0.00809 | -0.249 |
| Mal-A6 | DRSC07233 | -0.495 | -0.229 |
